What all share (experiment): affinity purification with mass spectrometry; 20 μg purified GST-Pdlim5 (WT or S177D) immobilised on glutathione-Sepharose beads, incubated at 4 °C for 2 h with lysate of 2 x 10^9 U937 cells (30 mM MOPS pH 7.5, 150 mM NaCl, 0.5% Triton-X100, 1.5 mM MgCl2, 1 mM EGTA, 1 mM DTT); eluted with 500 mM NaCl; shotgun LC-MS; only the target purified
For test [1], the target named is T1, GST-tagged S177D-Pdlim5 (mouse) (UniProt Q8CI51).
T1 sequence: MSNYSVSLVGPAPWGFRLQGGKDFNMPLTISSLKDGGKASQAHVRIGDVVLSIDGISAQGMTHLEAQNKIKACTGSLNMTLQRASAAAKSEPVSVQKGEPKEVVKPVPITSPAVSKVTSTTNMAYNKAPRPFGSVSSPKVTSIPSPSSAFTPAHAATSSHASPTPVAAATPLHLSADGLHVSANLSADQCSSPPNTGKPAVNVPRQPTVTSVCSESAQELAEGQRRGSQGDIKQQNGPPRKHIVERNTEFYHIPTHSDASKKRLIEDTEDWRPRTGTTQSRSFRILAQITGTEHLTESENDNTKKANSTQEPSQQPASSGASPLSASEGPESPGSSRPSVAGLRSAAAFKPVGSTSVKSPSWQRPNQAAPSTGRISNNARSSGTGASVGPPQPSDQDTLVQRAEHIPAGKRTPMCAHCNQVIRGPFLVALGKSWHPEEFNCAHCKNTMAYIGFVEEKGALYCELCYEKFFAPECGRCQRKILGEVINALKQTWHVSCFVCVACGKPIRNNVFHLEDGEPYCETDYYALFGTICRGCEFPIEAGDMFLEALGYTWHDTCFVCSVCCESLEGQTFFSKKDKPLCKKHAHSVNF

The chains behind the UniProt entries cited, without tags or fusion partners.
UniProt Q92608: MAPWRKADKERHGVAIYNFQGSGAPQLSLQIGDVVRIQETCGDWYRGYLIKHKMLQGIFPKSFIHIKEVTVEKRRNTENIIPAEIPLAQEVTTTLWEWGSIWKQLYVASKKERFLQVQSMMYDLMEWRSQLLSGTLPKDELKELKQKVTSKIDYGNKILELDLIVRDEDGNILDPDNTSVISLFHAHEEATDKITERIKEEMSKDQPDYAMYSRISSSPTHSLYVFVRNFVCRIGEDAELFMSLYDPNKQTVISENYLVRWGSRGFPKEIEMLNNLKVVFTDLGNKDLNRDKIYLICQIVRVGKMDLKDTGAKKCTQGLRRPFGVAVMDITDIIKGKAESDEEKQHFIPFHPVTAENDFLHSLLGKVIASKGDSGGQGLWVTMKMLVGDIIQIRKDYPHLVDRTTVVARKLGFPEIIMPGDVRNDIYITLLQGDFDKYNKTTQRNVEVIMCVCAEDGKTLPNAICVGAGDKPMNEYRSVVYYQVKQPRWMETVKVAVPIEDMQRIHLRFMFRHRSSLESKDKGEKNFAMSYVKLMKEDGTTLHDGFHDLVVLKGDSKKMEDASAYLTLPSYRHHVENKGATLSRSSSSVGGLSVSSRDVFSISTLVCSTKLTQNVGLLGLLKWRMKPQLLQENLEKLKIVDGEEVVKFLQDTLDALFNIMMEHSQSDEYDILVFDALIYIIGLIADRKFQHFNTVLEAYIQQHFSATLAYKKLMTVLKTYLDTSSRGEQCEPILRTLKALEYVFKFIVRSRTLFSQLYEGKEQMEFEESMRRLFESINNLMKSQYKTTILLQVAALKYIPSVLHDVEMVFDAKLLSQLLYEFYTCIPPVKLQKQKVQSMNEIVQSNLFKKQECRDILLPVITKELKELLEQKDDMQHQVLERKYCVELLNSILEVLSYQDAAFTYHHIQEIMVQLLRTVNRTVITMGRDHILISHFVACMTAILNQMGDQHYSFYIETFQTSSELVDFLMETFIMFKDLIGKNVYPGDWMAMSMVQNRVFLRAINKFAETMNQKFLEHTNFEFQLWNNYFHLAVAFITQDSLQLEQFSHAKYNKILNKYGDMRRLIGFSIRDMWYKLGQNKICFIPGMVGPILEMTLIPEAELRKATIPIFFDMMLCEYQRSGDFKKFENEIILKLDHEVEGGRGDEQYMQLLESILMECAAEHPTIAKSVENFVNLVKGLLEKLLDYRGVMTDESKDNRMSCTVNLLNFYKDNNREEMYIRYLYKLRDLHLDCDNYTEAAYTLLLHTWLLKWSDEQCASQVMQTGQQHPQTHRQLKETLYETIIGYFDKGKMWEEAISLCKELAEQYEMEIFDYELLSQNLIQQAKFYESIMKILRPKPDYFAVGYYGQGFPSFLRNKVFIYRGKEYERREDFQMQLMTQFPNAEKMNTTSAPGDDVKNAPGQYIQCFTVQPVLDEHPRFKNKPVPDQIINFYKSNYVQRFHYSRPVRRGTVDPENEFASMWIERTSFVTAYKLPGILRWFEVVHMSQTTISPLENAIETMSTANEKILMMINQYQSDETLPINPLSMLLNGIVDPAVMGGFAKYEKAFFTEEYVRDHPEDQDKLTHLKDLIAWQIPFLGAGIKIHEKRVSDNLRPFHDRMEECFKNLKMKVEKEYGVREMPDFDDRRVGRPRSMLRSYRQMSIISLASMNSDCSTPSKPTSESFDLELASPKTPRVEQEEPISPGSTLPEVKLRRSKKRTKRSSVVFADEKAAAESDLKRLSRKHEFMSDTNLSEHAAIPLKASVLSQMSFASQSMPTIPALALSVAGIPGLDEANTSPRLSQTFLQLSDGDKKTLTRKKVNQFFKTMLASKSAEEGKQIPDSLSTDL

The target in test [2] is T2, GST-tagged WT-Pdlim5 (PDZ and LIM domain 5) (mouse) (UniProt Q8CI51).
T2 sequence: T1 sequence with D177S

For test [3], the target named is T2, GST-tagged WT-Pdlim5 (PDZ and LIM domain 5) (mouse). This is another data set of the same source.

Residue numbers refer to the chain shown, from its start. Like-named read-outs stand apart in the source and are kept apart here. These are yes or no findings as the source states them, for the method shown. In cells and extracts the contact can be indirect. These calls come from enrichment with a bait or labelling near it, and not all partners need be listed. Sequences can lack the tags named with a protein.

As to “dedicator of cytokinesis 2 (from UniProt Q92608 1-1830)”, the binding entry in test [1] and in test [2] was “binds” throughout.

B1: Rho GEF 6 (Arhgef6) (protein, UniProt Q15052 1-776)
chain: MNPEEQIVTWLISLGVLESPKKTICDPEEFLKSSLKNGVVLCKLINRLMPGSVEKFCLDPQTEADCINNINDFLKGCATLQVEIFDPDDLYSGVNFSKVLSTLLAVNKATEDQLSERPCGRSSSLSAANTSQTNPQGAVSSTVSGLQRQSKTVEMTENGSHQLIVKARFNFKQTNEDELSVCKGDIIYVTRVEEGGWWEGTLNGRTGWFPSNYVREIKSSERPLSPKAVKGFETAPLTKNYYTVVLQNILDTEKEYAKELQSLLVTYLRPLQSNNNLSTVEVTSLLGNFEEVCTFQQTLCQALEECSKFPENQHKVGGCLLSLMPHFKSMYLAYCANHPSAVNVLTQHSDELEQFMENQGASSPGILILTTNLSKPFMRLEKYVTLLQELERHMEDTHPDHQDILKAIVAFKTLMGQCQDLRKRKQLELQILSEPIQAWEGEDIKNLGNVIFMSQVMVQYGACEEKEERYLMLFSNVLIMLSASPRMSGFIYQGKIPIAGTVVTRLDEIEGNDCTFEITGNTVERIVVHCNNNQDFQEWLEQLNRLIRGPASCSSLSKTSSSSCSAHSSFSSTGQPRGPLEPPQIIKPWSLSCLRPAPPLRPSAALGYKERMSYILKESSKSPKTMKKFLHKRKTERKPSEEEYVIRKSTAALEEDAQILKVIEAYCTSANFQQGHGSSTRKDSIPQVLLPEEEKLIIEETRSNGQTIMEEKSLVDTVYALKDEVRELKQENKRMKQCLEEELKSRRDLEKLVRRLLKQTDECIRGESSSKTSILP
For the molecule B1, in test [3], the binding result is “binds”.

Values taken from publication PMC4317497.
